In PubChem BioAssay AID248 (DTP/NCI, 2004) one finds survivor count and T/C data, which are given here for 16 molecules.

For this test, the system named is L1210 leukemia ip in BDF1 mice, survival T/C. The test is described as follows: NCI In Vivo Anticancer Drug Screen. Data for tumor model L1210 Leukemia (intraperitoneal) in B6D2F1 (BDF1) mice. The following applies: higher T/C = longer survival.
The mark [1] stands for this setting: T/C endpoint: mean survival time, dose: 400.0 mg/kg/injection, schedule: Q01DX001 (ip), vehicle: carboxymethylcellulose (CMC).
The mark [2] stands for this setting: T/C endpoint: mean survival time, dose: 400.0 mg/kg/injection, schedule: Q04DX003 (ip), vehicle: Klucel (hydroxypropylcellulose) (HPC).
The mark [3] stands for this setting: T/C endpoint: mean survival time, dose: 300.0 mg/kg/injection, schedule: Q01DX001 (ip), vehicle: saline.
Setting [4] is: T/C endpoint: mean survival time, dose: 150.0 mg/kg/injection, schedule: Q01DX001 (ip), vehicle: saline.

The list shows only some results of the screen, not a fair sample: it is rich in T/C values a quarter to a half above the control, in often repeated tests (any T/C) and in doses without a T/C. Further doses and runs are listed elsewhere. T/C gives the treated animals as a percentage of the vehicle group. Some doses have a count of surviving animals in place of a T/C: the source holds a T/C of zero for them, seemingly a mark for toxic or unscored doses. Some doses without a T/C left all or most animals alive at the check, yet need not have been tolerated: survival well below the control is almost never listed, so the zero probably covers shortened survival too. Survivors were counted at the toxicity check, usually on the fifth day, unless a day is given; later deaths do not show. Schedule codes are those of the source, read here as Q, the interval in days (D) or hours (H), X, the number of doses. Some schedule codes hold Z or #, which are not explained here. Where survival is the endpoint, the PubChem record calls one and a half times the control and up active, and a quarter to a half above the control has no call in these data; cut-offs in other NCI protocols can differ. Some T/C values carry the count of animals alive at the toxicity check (mostly the fifth day); without a count, all were alive then.

With `COc1ccccc1C(=O)C=C(C(F)(F)F)C(F)(F)F`, the survivor count (T/C endpoint: mean survival time, dose: 400.0 mg/kg/injection, schedule: Q04DX003 (ip), vehicle: saline with Tween-80) is 3 of 6.

For `CCCCCCCC/C=N/Nc1nnc(N/N=C/CCCCCCCC)c2ccccc12`, the survivor count reads like this: (T/C endpoint: mean survival time, dose: 266.0 mg/kg/injection, schedule: Q01DX001 (ip), vehicle: carboxymethylcellulose (CMC)) 1 of 4; under setting [1], 1 of 4; (T/C endpoint: mean survival time, dose: 600.0 mg/kg/injection, schedule: Q01DX001 (ip), vehicle: carboxymethylcellulose (CMC)) 0 of 4. Further, the T/C under setting [1] was 125 % of control.

As to `Cn1cnc(N)c1/C(N)=N/O`, the survivor count is, setting by setting: (T/C endpoint: mean survival time, dose: 50.0 mg/kg/injection, schedule: Q01DX005 (ip), vehicle: saline) 4 of 6; (T/C endpoint: mean survival time, dose: 100.0 mg/kg/injection, schedule: Q01DX005 (ip), vehicle: saline) 4 of 6; (T/C endpoint: mean survival time, dose: 200.0 mg/kg/injection, schedule: Q01DX005 (ip), vehicle: saline) 0 of 6; (T/C endpoint: mean survival time, dose: 400.0 mg/kg/injection, schedule: Q01DX005 (ip), vehicle: saline) 0 of 6.

For `CC1(C)CC(=O)C=C(OS(=O)(=O)C(F)(F)F)C1`, the survivor count (T/C endpoint: mean survival time, dose: 200.0 mg/kg/injection, schedule: Q01DX009 (ip), vehicle: DMSO) was 1 of 6.

As to `COc1ccc(/C=N/NC(=O)CNC(=O)Nc2cccc(Cl)c2Cl)cc1`, the survivor count (T/C endpoint: mean survival time, dose: 200.0 mg/kg/injection, schedule: Q01DX009 (ip), vehicle: saline with Tween-80) is reported as 3 of 3.

On to `COc1ccc2nc3ccccc3c(NCCNCCO)c2c1`, for which the survivor count is listed as 6 of 6 (T/C endpoint: mean survival time, dose: 13.5 mg/kg/injection, schedule: Q01DX Z (ip), vehicle: carboxymethylcellulose (CMC)); 3 of 6 (T/C endpoint: mean survival time, dose: 20.0 mg/kg/injection, schedule: Q01DX Z (ip), vehicle: carboxymethylcellulose (CMC)); 3 of 4 (T/C endpoint: mean survival time, dose: 100.0 mg/kg/injection, schedule: Q01DX001 (ip), vehicle: saline); 0 of 4 (T/C endpoint: mean survival time, dose: 200.0 mg/kg/injection, schedule: Q01DX001 (ip), vehicle: saline); 0 of 4 (T/C endpoint: mean survival time, dose: 400.0 mg/kg/injection, schedule: Q01DX001 (ip), vehicle: saline).

`COc1ccc(Cc2c3cc(OC)c(OC)cc3cc[n+]2Cc2ccc(N(CCCl)CCCl)cc2)cc1OC`: for the setting “T/C endpoint: mean survival time, dose: 300.0 mg/kg/injection, schedule: Q01DX001 (ip), vehicle: carboxymethylcellulose (CMC)”, the survivor count was 0 of 6.

Take `CS(=O)(=O)OCCN(CCOS(C)(=O)=O)c1ccc(C=Nc2ccc(C(=O)O)cc2)cc1`: the T/C (T/C endpoint: mean survival time, dose: 5.0 mg/kg/injection, schedule: Q04DX003 (ip), vehicle: Klucel (hydroxypropylcellulose) (HPC)) was 127 % of control and the T/C (T/C endpoint: mean survival time, dose: 10.0 mg/kg/injection, schedule: Q04DX003 (ip), vehicle: Klucel (hydroxypropylcellulose) (HPC)) is 130 % of control. The survivor count runs as follows: (T/C endpoint: mean survival time, dose: 80.0 mg/kg/injection, schedule: Q04DX003 (ip), vehicle: Klucel (hydroxypropylcellulose) (HPC)) 6 of 6; (T/C endpoint: mean survival time, dose: 100.0 mg/kg/injection, schedule: Q04DX003 (ip), vehicle: Klucel (hydroxypropylcellulose) (HPC)) 5 of 6; (T/C endpoint: mean survival time, dose: 200.0 mg/kg/injection, schedule: Q04DX003 (ip), vehicle: Klucel (hydroxypropylcellulose) (HPC)) 4 of 6; under setting [2], 4 of 6.

Turning to `Cc1ccc(N=Nc2sc(N)nc2C)cc1`, under setting [3], the survivor count is on record as 1 of 6.

Turning to `CCOC(=O)C(=N\Nc1ccc(C)cc1C)/C(C)=N\NC(N)=S`, the survivor count under setting [4] was 1 of 6 and the survivor count under setting [3] was 0 of 6.

With `CCOC(=O)c1[nH]cnc1/N=N/N(C)CCO`, the T/C reads like this: (T/C endpoint: mean survival time, dose: 100.0 mg/kg/injection, schedule: Q01DX009 (ip), vehicle: Klucel (hydroxypropylcellulose) (HPC)) 136 % of control; (T/C endpoint: mean survival time, dose: 115.0 mg/kg/injection, schedule: Q01DX009 (ip), vehicle: saline) 145 % of control; (T/C endpoint: mean survival time, dose: 180.0 mg/kg/injection, schedule: Q01DX009 (ip), vehicle: Klucel (hydroxypropylcellulose) (HPC)) 131 % of control; (T/C endpoint: mean survival time, dose: 187.0 mg/kg/injection, schedule: Q01DX009 (ip), vehicle: carboxymethylcellulose (CMC)) 129 % of control; (T/C endpoint: mean survival time, dose: 200.0 mg/kg/injection, schedule: Q01DX009 (ip), vehicle: Klucel (hydroxypropylcellulose) (HPC)) 128 % of control; (T/C endpoint: mean survival time, dose: 264.0 mg/kg/injection, schedule: Q01DX009 (ip), vehicle: saline) 135 % of control. The T/C was 136 % of control (T/C endpoint: mean survival time, dose: 266.0 mg/kg/injection, schedule: Q01DX009 (ip), vehicle: carboxymethylcellulose (CMC)); 130 % of control (T/C endpoint: mean survival time, dose: 360.0 mg/kg/injection, schedule: Q01DX009 (ip), vehicle: Klucel (hydroxypropylcellulose) (HPC)); 137 % of control (T/C endpoint: mean survival time, dose: 400.0 mg/kg/injection, schedule: Q01DX009 (ip), vehicle: carboxymethylcellulose (CMC)); 147 % of control [5 of 6 alive] (T/C endpoint: mean survival time, dose: 400.0 mg/kg/injection, schedule: Q01DX009 (ip), vehicle: saline); 125 % of control under setting [2]; 129 % of control (T/C endpoint: mean survival time, dose: 600.0 mg/kg/injection, schedule: Q01DX009 (ip), vehicle: carboxymethylcellulose (CMC)).

Take `Cn1nc(NN)c2cccnc21`: the survivor count (T/C endpoint: mean survival time, dose: 300.0 mg/kg/injection, schedule: Q01DX001 (ip), vehicle: other) was 0 of 6.

On to `CCC(C)C1NC(=O)C(NC(=O)c2c3nc4c(C(=O)NC5C(=O)NC(C(C)CC)C(=O)N6CCCC6C(=O)N(C)CC(=O)N(C)C(C(C)C)C(=O)OC5C)ccc(C)c4oc-3c(C)c(=O)c2N)C(C)OC(=O)C(C(C)C)N(C)C(=O)CN(C)C(=O)C2CCCN2C1=O` (stereo not given), for which the T/C was 142 % of control (T/C endpoint: mean survival time, dose: 0.05 mg/kg/injection, schedule: Q01DX009 (ip), vehicle: saline); 125 % of control (T/C endpoint: mean survival time, dose: 0.2 mg/kg/injection, schedule: Q01DX009 (ip), vehicle: saline); 144 % of control [5 of 6 alive] (T/C endpoint: mean survival time, dose: 5.0 micrograms/kg/injection, schedule: Q01DX009 (ip), vehicle: saline); 127 % of control (T/C endpoint: mean survival time, dose: 20.0 micrograms/kg/injection, schedule: Q01DX009 (ip), vehicle: saline); 142 % of control (T/C endpoint: mean survival time, dose: 25.0 micrograms/kg/injection, schedule: Q01DX009 (ip), vehicle: saline); 138 % of control (T/C endpoint: mean survival time, dose: 40.0 micrograms/kg/injection, schedule: Q01DX009 (ip), vehicle: acetone). The T/C reads like this: (T/C endpoint: mean survival time, dose: 40.0 micrograms/kg/injection, schedule: Q01DX009 (ip), vehicle: saline) 130 % of control; (T/C endpoint: mean survival time, dose: 400.0 micrograms/kg/injection, schedule: Q01DX001 (ip), vehicle: saline) 130 % of control; (T/C endpoint: median survival time, dose: 50.0 micrograms/kg/injection, schedule: Q01DX009 (ip), vehicle: water) 134 % of control; (T/C endpoint: median survival time, dose: 100.0 micrograms/kg/injection, schedule: Q01DX009 (ip), vehicle: water) 140 % of control; (T/C endpoint: median survival time, dose: 150.0 micrograms/kg/injection, schedule: Q04DX003 (ip), vehicle: water) 125 % of control; (T/C endpoint: median survival time, dose: 300.0 micrograms/kg/injection, schedule: Q04DX003 (ip), vehicle: water) 136 % of control. Moreover, the T/C was 126 % of control (T/C endpoint: median survival time, dose: 400.0 micrograms/kg/injection, schedule: Q01DX001 (ip), vehicle: water); 140 % of control (T/C endpoint: median survival time, dose: 800.0 micrograms/kg/injection, schedule: Q01DX001 (ip), vehicle: water); 140 % of control (T/C endpoint: median survival time, dose: 1600.0 micrograms/kg/injection, schedule: Q01DX001 (ip), vehicle: water).

As to `CCOC(=O)C(O)c1cccc(OC)c1` (stereo not given), the survivor count (T/C endpoint: mean survival time, dose: 200.0 mg/kg/injection, schedule: Q01DX009 (ip), vehicle: saline sonified) is 6 of 6.

Turning to `C#CCN(CC#C)CC#C`, the survivor count by setting is: (T/C endpoint: mean survival time, dose: 100.0 mg/kg/injection, schedule: Q04DX003 (ip), vehicle: saline) 3 of 6; (T/C endpoint: mean survival time, dose: 200.0 mg/kg/injection, schedule: Q04DX003 (ip), vehicle: saline) 0 of 6; (T/C endpoint: mean survival time, dose: 400.0 mg/kg/injection, schedule: Q04DX003 (ip), vehicle: saline) 0 of 6.

Take `O=C(CCl)NC1=C(Cl)C(=O)c2ccccc2C1=O`: the survivor count is reported as 2 of 6 under setting [4] and 3 of 6 under setting [3].
